At least one structure is not confirmed: it was looked up by name or label, or the drawing left a doubt.
Biological target: T1, HAT1 (Homo sapiens, UniProt O14929)
T1 sequence (O14929 1-419): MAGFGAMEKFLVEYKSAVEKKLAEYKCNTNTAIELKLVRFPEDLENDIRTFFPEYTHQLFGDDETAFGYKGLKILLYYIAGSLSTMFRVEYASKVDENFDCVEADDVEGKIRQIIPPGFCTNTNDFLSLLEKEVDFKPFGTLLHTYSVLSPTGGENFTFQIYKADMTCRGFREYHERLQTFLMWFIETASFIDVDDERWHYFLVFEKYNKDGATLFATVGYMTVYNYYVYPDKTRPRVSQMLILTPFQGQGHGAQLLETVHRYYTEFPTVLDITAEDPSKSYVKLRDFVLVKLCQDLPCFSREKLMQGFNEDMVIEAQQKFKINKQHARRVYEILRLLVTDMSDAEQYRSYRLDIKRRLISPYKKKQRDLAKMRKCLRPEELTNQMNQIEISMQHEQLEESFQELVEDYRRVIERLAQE
Assay: FDA library screening (analysis service PLEXERA) and binding strength, HAT1
Source text: Medicines containing each as an active ingredient (provided that each medicine has an indication other than that for malignant tumors) have already been commercially available.
Meanwhile, medicines containing each as an active ingredient (provided that each medicine has an indication other than that for malignant tumors) have already been commercially available.

C=CC1=C(C(=O)O)N2C(=O)[C@@H](NC(=O)/C(=N\OCC(=O)O)c3csc(N)n3)[C@H]2SC1 [cefixime]
inhibition of function of HAT1: inhibited only HAT1

C[C@@H](O)[C@H]1C(=O)N2C(C(=O)O)=C(SCCN=CN)C[C@H]12 [imipenem]
inhibition of function of HAT1: inhibited only HAT1
